# Measurements: patent publication US6379658B1, “Human sweat malodor counteractant composition and process for using same” (International Flavors & Fragrances Inc., priority 1999, dated 2002)
# Test: Cloth substantivity (Launder-O-Meter washed fabric, odor intensity rated by trained panel)
# Conditions: single fragrance ingredient
row,Compound,Substantivity (Time [Hours])
1,"CC(=O)C(C)=CC1C(C)=CCCC1(C)C (stereo not shown) [γ-Methyl ionone, 4-(2,6,6-trimethyl-2-cyclohexen-1-yl)-3-methyl-3-buten-2-one]",24 h
2,"CC(=O)c1ccc2ccccc2c1 [Methyl β-naphthalene ketone, methyl β-naphthyl ketone]",24 h
3,"CC(=O)CCc1ccccc1 [Benzyl acetone, benzyl acetone]",24 h
4,"COc1ccc2ccccc2c1 [β-Naphthyl methyl ether, β-naphthyl methyl ether]",24 h
